Measurements: the supplement of paper PMC3334620
Over roughly 33,000 sequences, “E-score (-0.5 to 0.5)” has its median near -0.016; the highest 2% begin near 0.3. The list shows a part of the results.

target: T1, Yer184c (UniProt P39961); assay: PBM E-score (8-mer binding enrichment) (E-score (-0.5 to 0.5)); higher = stronger / more preferred TF binding; conditions: protein concentration: 100 nM; construct: GST-full length
T1 sequence: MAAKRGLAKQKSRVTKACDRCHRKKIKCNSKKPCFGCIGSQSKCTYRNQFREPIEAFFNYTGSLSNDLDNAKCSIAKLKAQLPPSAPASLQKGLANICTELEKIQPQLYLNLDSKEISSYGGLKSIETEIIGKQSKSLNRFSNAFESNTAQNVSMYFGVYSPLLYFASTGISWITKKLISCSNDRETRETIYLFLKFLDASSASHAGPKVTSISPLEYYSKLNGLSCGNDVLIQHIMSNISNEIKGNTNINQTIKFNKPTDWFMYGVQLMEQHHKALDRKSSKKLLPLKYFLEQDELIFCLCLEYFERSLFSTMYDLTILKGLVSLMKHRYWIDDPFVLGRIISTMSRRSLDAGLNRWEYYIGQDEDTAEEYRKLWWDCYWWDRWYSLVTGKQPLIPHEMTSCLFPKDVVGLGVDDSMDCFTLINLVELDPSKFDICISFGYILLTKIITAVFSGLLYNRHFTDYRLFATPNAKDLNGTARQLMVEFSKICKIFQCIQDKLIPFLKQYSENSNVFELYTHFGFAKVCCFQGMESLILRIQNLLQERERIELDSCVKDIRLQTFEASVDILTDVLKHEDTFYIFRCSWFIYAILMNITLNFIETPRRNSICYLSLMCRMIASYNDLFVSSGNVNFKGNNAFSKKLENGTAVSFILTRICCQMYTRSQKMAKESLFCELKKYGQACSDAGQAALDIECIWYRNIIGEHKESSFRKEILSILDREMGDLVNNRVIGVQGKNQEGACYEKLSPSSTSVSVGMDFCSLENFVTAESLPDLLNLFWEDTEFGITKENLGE
Method: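 Universal 'all 10-mer' protein binding microarrays (Agilent AMADID 015681) probed with GST-tagged S. cerevisiae TFs (full-length or DBD) made by in vitro transcription/translation (PURExpress), about 100-200 nM. Bound TF was detected with fluorescent anti-GST. Each ungapped 8-mer (which stands for itself and its reverse complement) is scored by the PBM enrichment score (E-score), a modified Wilcoxon-Mann-Whitney statistic from -0.5 to +0.5, computed with the Universal PBM Analysis Suite. Scale: above 0.35 generally sequence-specific binding.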

Row | Sequence | PBM E-score
1 | AGGTGGTG | -0.157
2 | CTATAGAA | 0.0508
3 | GATGATCC | 0.122
4 | CTAACCGC | -0.0947
5 | CCGGAGAG | 0.187
6 | ACTCGGGC | 0.0253
7 | ATTTCCCC | -0.166
8 | GTTGTCGA | -0.0791
9 | GATGCACA | -0.145
10 | ATGATGTA | 0.0881
11 | AGCACATA | 0.0135
12 | ATAAGAAA | 0.232
13 | ACTAACCG | 0.175
14 | ACCCGAGT | 0.0508
15 | TACCTACA | 0.0256
16 | AACTTTCC | 0.0363
17 | TTATCGAA | 0.175
18 | CTAACTCC | -0.121
19 | ATCGTAGA | -0.193
20 | AACGAAAA | 0.0387
21 | AACGAGAA | 0.0494
22 | CTTACGTA | -0.0591

Row | Sequence | PBM E-score
23 | TAGTCGGA | 0.212
24 | GAACGAGC | 0.0546
25 | AGGGTCGC | -0.0902
26 | AATAAGCA | 0.131
27 | CCGGGCTC | 0.288
28 | ACGCCAAG | -0.211
29 | AACTGGAC | -0.147
30 | ACTGGGGA | -0.347
31 | ATACGCAA | -0.00166
32 | AGTCTTGA | -0.103
33 | AAGAAGCG | -0.133
34 | CGATTCAC | -0.0394
35 | AGGACACG | -0.159
36 | AATTATCA | 0.221
37 | CTAACGTC | 0.0536
38 | CGCTGGAG | -0.0527
39 | CACGAACG | 0.0597
40 | ACCGCCTG | -0.103
41 | ATCTACCA | -0.0467
42 | GAGTGACA | 0.0161
43 | GAGGACTA | -0.107
44 | ATGCCTAA | -0.0815

Row | Sequence | PBM E-score
45 | GCGGGAAC | -0.00769
46 | GATGGTGA | -0.145
47 | CCCACCAC | -0.151
48 | AACCTCCA | -0.273
49 | GACTGCGA | -0.17
50 | TAGATAGA | -0.0868
51 | TCATTCGA | 0.0699
52 | CCAACGCC | -0.0839
53 | ATTGCAAC | 0.0297
54 | AAACCGGG | 0.0839
55 | CAAGCTGG | -0.129
56 | GCTGCTGA | 0.0415
57 | AGGTGCGA | -0.127
58 | AGAAAGAA | 0.175
59 | AACTGCGA | -0.134
60 | AACCCCAG | -0.279
61 | CTGGAAGA | 0.0137
62 | ATTTTTCC | 0.193
63 | AACCCCCG | -0.255
64 | AAAGAACC | 0.165
65 | GCAGCGTA | -0.112
66 | AAAGGCCT | -0.253

Row | Sequence | PBM E-score
67 | AACTTTCA | 0.122
68 | CTGACCGA | -0.0183
69 | GCTCTCCA | -0.245
70 | CTAGTTCA | -0.0438
71 | AGGGATAG | -0.208
72 | AGATCGGC | 0.194
73 | TACTGATA | 0.266
74 | AGTCACAC | -0.207
75 | CTTTTTGC | 0.0194
76 | AGATGTAG | -0.0564
77 | ATTTAGAC | 0.121
78 | GCGCGTAA | -0.0129
79 | ATGGAGAA | 0.14
80 | AGAACGGA | 0.228
81 | AGTCCGAC | -0.14
82 | GGAAATAC | 0.176
83 | AGCGTTAC | -0.109
84 | CCTCGACA | -0.149
85 | CTGTCAGA | -0.0932
86 | CTACAGTA | -0.133

6 entries from above, as a markdown table.

| Row | Sequence | PBM E-score |
| --- | --- | --- |
| 9 | GATGCACA | -0.145 |
| 16 | AACTTTCC | 0.0363 |
| 44 | ATGCCTAA | -0.0815 |
| 56 | GCTGCTGA | 0.0415 |
| 66 | AAAGGCCT | -0.253 |
| 82 | GGAAATAC | 0.176 |
